Measured values: the supplement of paper PMC3334620
Over roughly 33,000 sequences, “E-score (-0.5 to 0.5)” has its median near -8e-05; the highest 2% begin near 0.23. Some of the results follow.

What follows are sequences tested against T1, Nrg2 (UniProt P38082) (assay: PBM E-score (8-mer binding enrichment) (E-score (-0.5 to 0.5)); higher = stronger / more preferred TF binding). Conditions: protein concentration: 100 nM; construct: GST-full length.
T1 sequence: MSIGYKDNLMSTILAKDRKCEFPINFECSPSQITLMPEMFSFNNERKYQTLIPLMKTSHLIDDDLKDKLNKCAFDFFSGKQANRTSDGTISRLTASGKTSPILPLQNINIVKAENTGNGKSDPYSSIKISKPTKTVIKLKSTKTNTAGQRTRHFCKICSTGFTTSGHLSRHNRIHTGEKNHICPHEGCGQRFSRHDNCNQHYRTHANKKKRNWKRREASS
Method in brief: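 Yeast transcription factors, full-length or as DNA-binding domains, were expressed with a GST tag using PURExpress in vitro transcription/translation. At about 100-200 nM they were applied to universal all-10-mer Agilent arrays, double-stranded by primer extension on fresh or once-stripped slides. Fluorescent anti-GST detected bound protein, and masliner normalised the scans. E-scores for ungapped eight-base words, pooled with reverse complements, came from the Universal PBM Analysis Suite.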

Sequence	PBM E-score
CGCCTATA	-0.127
ATTGCCCA	0.0319
CTGAGAAG	-0.0101
ACTAACCC	0.114
GACGGAGA	-0.0952
TCGTGTAA	0.0362
AGTCATCG	-0.07
CTCCAGAG	-0.0899
GTGACATA	0.0599
AGGACTGG	-0.176
CCTCCTAG	0.00177
GGGTGTAA	0.0253
AATTCAAA	0.0169
ACCAAGGG	0.141
ATAGTCAA	-0.00877
GGTCGCGA	0.242
AGGGTGCC	-0.00542
ACGGACAT	0.0308
AGCAGACA	-0.164
CACAAAGG	-0.00781
CCACAGCC	-0.108
CCCAGTCC	-0.141

An excerpt from further up, for reference:
Sequence	PBM E-score
ATTGCCCA	0.0319
CTGAGAAG	-0.0101
ACTAACCC	0.114
GACGGAGA	-0.0952
TCGTGTAA	0.0362
AGTCATCG	-0.07
CTCCAGAG	-0.0899

Remaining list, next part.

Sequence	PBM E-score
CCCACTGA	0.0719
ATCACAAT	0.128
CACGGAAA	0.0406
GAGTCCGC	-0.235
TAGATGGA	-0.00164
GTAGAATA	0.101
GGACGCAC	0.137
CTAGCAAC	0.0101
ACGTGACG	-0.0649
TCCACGCA	-0.0452
GTATCGGA	-0.0682
ACACGAAT	0.167
CAGCTCGG	-0.0886
AACCTAAT	-0.115
AAGCCAGA	-0.12
CTGCCTGA	0.148
AATATGAA	0.177
ATTCCGCG	0.107
ACTACCGA	-0.194
GCGCCCGA	-0.0267
GTTACTTA	0.0291
AGTTTTAG	-0.0386

Sequence	PBM E-score
AAGACGCA	0.00998
CACCAGAG	-0.0636
TAGCGACA	0.00083
AAATAAGG	0.182
AGCTCCAC	-0.0768
ACACGATG	0.0457
AGGAAGAC	-0.26
GCATTAAC	0.026
ATCGGCGC	0.0976
ACGCCTCA	-0.0876
GGTATAAC	-0.0672
TCGGGGCA	0.0321
TCATCGGA	-0.0277
CCAGAAGG	-0.12
GTGCTTAA	0.0625
ATCGTCAC	0.139
TAGGATAA	0.0441
CGCTAACC	-0.175
GACCTCCC	-0.276
ACATTTTC	0.158
ATCCTAAA	-0.245
GGACATGA	-0.12

Sequence	PBM E-score
ACTGACAA	0.147
GCAAGTCA	0.107
ACAACTAA	0.199
ACCTAATA	0.0545
ACTCGTGC	0.025
GAAGTTTA	-0.117
AGTCGGCG	-0.00183
GAGGGATC	-0.0455
GACGACTC	-0.115
CCCAACGA	-0.0538
ACCTTAGT	-0.13
CCAACGCA	0.0458
TAAGCAGA	-0.0105
AGACCTCA	-0.0584
AACCTGAC	0.124
AGGACTCA	-0.0525
CACGATCA	0.0687
CGCATGCC	0.145
ACCTGCGG	-0.0875
AGGTACTC	-0.0181
